Here are results for 48 molecules from the supplement of paper PMC3682954.

Several values for one entry are separate records, joined by “and”; a condition that tells them apart may be missing. Equal entries are not always repeated. Structures can show the parent of a compound that is named as a salt. ± gives the standard deviation of the averaged measurements. The list shows a part of the results. Single values are uncertain, as repeats are few or missing.

The experiment deals with RAW 264.7. The experiment is described as follows: cell viability (MTT) relative to vehicle control; higher = more viable cells. The settings on record: stimulus: HMGB1 5 ug/ml, 18 h.
Setting [1] is: compound concentration: 1 ug/ml.

What is called cell viability is a read-out of living cells in per cent, often relative to untreated cells. Regarding `O=C1c2ccccc2C(=O)N1CCN1CC2CC(C1)c1cccc(=O)n1C2` (centres undefined), under setting [1], the cell viability was 95.1% and 85%.

`O=C(O)c1cc[c]([Hg][Cl])cc1` [4-Chloromercuribenzoic acid]: the cell viability (compound concentration: 3 uM) came out at 108%.

With `FC(F)(F)c1cccc(N2CCNCC2)c1`, the cell viability (compound concentration: 3 uM) came out at 99.4%.

Take `CC1=NN=C(c2ccc(N)cc2)c2cc3c(cc2C1)OCO3`: the cell viability (compound concentration: 3 uM) came to 107%.

On to `C[C@]12C/C(=C/O)C(=O)C[C@@H]1CC[C@@H]1[C@@H]2CC[C@@]2(C)[C@H]1CC[C@]2(C)O` [Oxymetholone], for which, under “compound concentration: 3 uM”, the cell viability came out at 104%.

As to `CC(C)=CCC[C@]1(C)C=Cc2c(O)c3c(c(CC=C(C)C)c2O1)O[C@]12C(=C[C@@H]4C[C@H]1C(C)(C)O[C@@]2(C/C=C(/C)C(N)=O)C4=O)C3=O`, the cell viability (compound concentration: 3 uM) was determined as 3.46%.

As to `COP(=S)(OC)Oc1ccc(Sc2ccc(OP(=S)(OC)OC)cc2)cc1`, the cell viability (compound concentration: 3 uM) amounted to 111%.

As to `CC(C)CC1C(=O)N2CCCC2C2(O)OC(NC(=O)C3C=C4c5cccc6[nH]cc(c56)CC4N(C)C3)(C(C)C)C(=O)N12` (stereo not drawn) [alpha-Ergocryptine], under setting [1], the cell viability came out at 103%.

As for `CC1=C(C2=C(C)C(=O)c3c(c(C=O)c(O)c(O)c3C(C)C)C2=O)C(=O)c2c(C=O)c(O)c(O)c(C(C)C)c2C1=O` [Gossypolone], the cell viability under setting [1] came to 119%.

For `CCOP(=S)(OCC)Oc1nc(Cl)c(Cl)cc1Cl`, the cell viability (compound concentration: 3 uM) was determined as 96.8%.

On to `CCCN1CCO[C@@H]2c3cc(O)ccc3OC[C@H]21` [S(+)-PD 128,907 hydrochloride], for which the cell viability (compound concentration: 3 uM) is 101%.

As for `CCCN1CCO[C@@H]2c3cc(O)ccc3OC[C@H]21` (racemic) [(±)-PD 128,907 hydrochloride], the cell viability (compound concentration: 3 uM) turned out to be 90.2%.

On to `c1ccc2c3c([nH]c2c1)CNCC3`, for which the cell viability (compound concentration: 3 uM) came to 98%.

For `CCCCCCCCCCCCCCCC[n+]1ccccc1`, the cell viability (compound concentration: 3 uM) is 90.3%.

In the case of `C=CCC1(C(C)CCC)C(=O)NC(=S)NC1=O` (centres undefined), the cell viability (compound concentration: 3 uM) amounted to 98%.

`C[C@@H]1O[C@@H](O[C@H]2C[C@@H](O)[C@]3(CO)[C@H]4[C@H](O)C[C@]5(C)[C@@H]([C@@H]6COC(=O)C6)CC[C@]5(O)[C@@H]4CC[C@]3(O)C2)[C@H](O)[C@H](O)[C@H]1O` [Dihydroouabain]: under “compound concentration: 3 uM”, the cell viability was 112%.

For `NCC(O)c1cccc(O)c1` (racemic) [DL-Norphenylephrine hydrochloride], under setting [1], the cell viability was 91.2%.

For the molecule `O=C(O)[C@@H]1CCN1` [L-azetidine-2-carboxylic acid], the cell viability (compound concentration: 3 uM) amounted to 101%.

For the molecule `CC(=O)NC1CCSC1=O` (centres undefined), the cell viability (compound concentration: 3 uM) was 113%.

As to `O=C(O)Cc1cnc[nH]1` [Imidazole-4-acetic acid hydrochloride], the cell viability (compound concentration: 3 uM) came to 104%.

As to `CNC(=O)Oc1ccccc1OC(C)C`, the cell viability (compound concentration: 3 uM) came to 113%.

Regarding `C[C@]12COC(=O)C[C@@H]1CC[C@@H]1[C@@H]2CC[C@@]2(C)[C@H]1CC[C@]2(C)O` [Oxandrolone], the cell viability (compound concentration: 3 uM) came to 92%.

Turning to `CCCn1c(C)c(C(=O)c2cccc3ccccc23)c2ccccc21`, the cell viability (compound concentration: 3 uM) was 96%.

Take `O=P1(N(CCCl)CCCl)NCCCO1` (centres undefined): the cell viability (compound concentration: 3 uM) stood at 100.9 ± 0.16%.

As to `O=P1(N(CCCl)CCCl)NCCCO1` (centres undefined) [Cyclophosphamide monohydrate], the cell viability (compound concentration: 3 uM) amounted to 95.6%.

For `O=P1(N(CCCl)CCCl)NCCCO1` (centres undefined) [Cyclophosphamide], for the setting “compound concentration: 3 uM”, the cell viability came out at 107 ± 6%.

In the case of `c1ccc2c(c1)sc1ccccc12`, the cell viability (compound concentration: 3 uM) was found to be 97.465 ± 0.092%.

`CC(=O)OCC1=C(C(=O)[O-])N2C(=O)[C@@H](NC(=O)CCC[C@@H](N)C(=O)[O-])[C@H]2SC1.[Zn+2]` [Cephalosporin C zinc salt]: the cell viability (compound concentration: 3 uM) was 102%.

In the case of `CN1C(=O)CCS(=O)(=O)C1c1ccc(Cl)cc1` (centres undefined), the cell viability (compound concentration: 3 uM) is 110%.

In the case of `CN1C(=O)CCS(=O)(=O)C1c1ccc(Cl)cc1` (centres undefined) [Chlormezanone], the cell viability (compound concentration: 3 uM) amounted to 98.7 ± 5.7%.

For `c1ccc(CCCN2CCN(CCOC(c3ccccc3)c3ccccc3)CC2)cc1`, the cell viability (compound concentration: 3 uM) was 106%.

`CC(C)C[C@H]1C(=O)N2CCC[C@H]2[C@]2(O)O[C@](NC(=O)[C@@H]3C=C4c5cccc6[nH]c(Br)c(c56)C[C@H]4N(C)C3)(C(C)C)C(=O)N12` [Bromocryptine mesylate]: the cell viability (compound concentration: 3 uM) worked out at 87.5%.

Regarding `CC(C)C[C@H]1C(=O)N2CCC[C@H]2[C@]2(O)O[C@](NC(=O)[C@@H]3C=C4c5cccc6[nH]c(Br)c(c56)C[C@H]4N(C)C3)(C(C)C)C(=O)N12` [Bromocriptine], the cell viability (compound concentration: 3 uM) was 119%.

Regarding `CC(C)C[C@H]1C(=O)N2CCC[C@H]2[C@]2(O)O[C@](NC(=O)[C@@H]3C=C4c5cccc6[nH]c(Br)c(c56)C[C@H]4N(C)C3)(C(C)C)C(=O)N12`, the cell viability (compound concentration: 3 uM) was 106%.

For `CC(C)C[C@H]1C(=O)N2CCC[C@H]2[C@]2(O)O[C@](NC(=O)[C@@H]3C=C4c5cccc6[nH]c(Br)c(c56)C[C@H]4N(C)C3)(C(C)C)C(=O)N12` [(+)-Bromocriptine methanesulfonate], the cell viability (compound concentration: 3 uM) was 94.6%.

With `C=CCN1CC[C@]23c4c5ccc(O)c4O[C@H]2/C(=N/N=C2\CC[C@@]4(O)[C@H]6Cc7ccc(O)c8c7[C@@]4(CCN6CC=C)[C@H]2O8)CC[C@@]3(O)[C@H]1C5` [Naloxonazine dihydrochloride], the cell viability (compound concentration: 3 uM) was 99.1%.

On to `C=CCN1CC[C@]23c4c5ccc(O)c4O[C@H]2/C(=N/N=C2\CC[C@@]4(O)[C@H]6Cc7ccc(O)c8c7[C@@]4(CCN6CC=C)[C@H]2O8)CC[C@@]3(O)[C@H]1C5` [Naloxonazine], for which the cell viability (compound concentration: 3 uM) was found to be 103%.

`COc1cc(C(O)CN)ccc1O` (racemic) [(±)-Normetanephrine hydrochloride]: the cell viability (compound concentration: 3 uM) was 109%.

For the molecule `C[C@]12CCC(=O)C=C1CC[C@@H]1[C@@H]2CC[C@@]2(C)[C@H]1CC[C@]2(C)O` [Methyltestosterone], the cell viability (compound concentration: 3 uM) was determined as 91.9%.

As to `CN1[C@@H]2CC[C@H]1C[C@@H](OC(=O)C(CO)c1ccccc1)C2` (some centres undefined) [Atropine], the cell viability under setting [1] was 92.3% and the cell viability (compound concentration: 3 uM) worked out at 119%.

Turning to `CN1[C@@H]2CC[C@H]1C[C@@H](OC(=O)C(CO)c1ccccc1)C2` (some centres undefined) [Atropine sulfate], the cell viability (compound concentration: 3 uM) was found to be 107%.

Turning to `CN1[C@@H]2CC[C@H]1C[C@@H](OC(=O)C(CO)c1ccccc1)C2` (some centres undefined), for the setting “compound concentration: 3 uM”, the cell viability was 101%.

Take `CN1[C@@H]2CC[C@H]1C[C@@H](OC(=O)C(CO)c1ccccc1)C2` (some centres undefined) [Atropine sulfate monohydrate]: the cell viability (compound concentration: 3 uM) came to 112%.

Consider `CC(C)NCC(O)c1ccc(N)c(C#N)c1` (centres undefined) [Cimaterol], for which the cell viability (compound concentration: 3 uM) came to 96.4%.

For `CNCC(O)c1ccc(O)cc1` (centres undefined), under “compound concentration: 3 uM”, the cell viability is 108% and 96.9%.

In the case of `CCC1=C[C@H]2CN3CCc4c([nH]c5ccccc45)[C@](C(=O)OC)(C2)[C@H]13` [Catharanthine], the cell viability (compound concentration: 3 uM) was determined as 103%.

Turning to `O=C(Cc1ccc(Cl)c(Cl)c1)N1CCCCC1CN1CCCC1` (centres undefined), the cell viability (compound concentration: 3 uM) stood at 117%.

With `C#CCOC(=O)C1=CCCN(C)C1` [Arecaidine propargyl ester hydrobromide], where the note is “compound concentration: 3 uM”, the cell viability stood at 93.8%.
